According to the supplement of paper PMC7666118:
The other results are listed elsewhere or left out.

Sequences of proteins named here, by UniProt entry; tags and fusion partners are left off. A change or cut given only in a name is not applied to a line headed by its entry.
UniProt Q63HQ0: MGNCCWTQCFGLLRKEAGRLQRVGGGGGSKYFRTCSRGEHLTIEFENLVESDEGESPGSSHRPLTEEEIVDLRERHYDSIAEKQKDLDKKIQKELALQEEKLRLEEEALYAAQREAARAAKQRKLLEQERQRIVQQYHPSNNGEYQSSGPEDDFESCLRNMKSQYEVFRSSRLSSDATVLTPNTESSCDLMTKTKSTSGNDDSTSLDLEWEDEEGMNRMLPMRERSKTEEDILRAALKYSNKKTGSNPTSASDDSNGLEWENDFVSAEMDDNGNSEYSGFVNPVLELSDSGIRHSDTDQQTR
UniProt Q9Y3X0: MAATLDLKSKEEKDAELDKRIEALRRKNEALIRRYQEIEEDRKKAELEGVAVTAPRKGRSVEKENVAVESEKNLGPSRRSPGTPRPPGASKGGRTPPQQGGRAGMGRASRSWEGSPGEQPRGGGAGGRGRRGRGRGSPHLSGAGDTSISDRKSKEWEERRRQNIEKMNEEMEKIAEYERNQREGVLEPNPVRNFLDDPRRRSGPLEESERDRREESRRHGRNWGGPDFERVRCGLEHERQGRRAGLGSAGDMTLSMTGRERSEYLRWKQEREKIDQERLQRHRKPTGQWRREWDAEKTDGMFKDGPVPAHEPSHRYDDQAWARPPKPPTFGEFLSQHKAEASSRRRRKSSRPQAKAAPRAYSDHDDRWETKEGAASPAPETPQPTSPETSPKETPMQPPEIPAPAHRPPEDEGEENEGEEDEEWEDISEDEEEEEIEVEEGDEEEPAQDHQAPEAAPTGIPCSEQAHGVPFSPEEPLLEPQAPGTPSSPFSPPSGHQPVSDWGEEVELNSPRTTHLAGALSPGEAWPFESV
UniProt Q8WUW1: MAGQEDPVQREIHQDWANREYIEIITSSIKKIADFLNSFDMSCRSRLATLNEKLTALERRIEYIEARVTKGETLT
UniProt Q5T3J3: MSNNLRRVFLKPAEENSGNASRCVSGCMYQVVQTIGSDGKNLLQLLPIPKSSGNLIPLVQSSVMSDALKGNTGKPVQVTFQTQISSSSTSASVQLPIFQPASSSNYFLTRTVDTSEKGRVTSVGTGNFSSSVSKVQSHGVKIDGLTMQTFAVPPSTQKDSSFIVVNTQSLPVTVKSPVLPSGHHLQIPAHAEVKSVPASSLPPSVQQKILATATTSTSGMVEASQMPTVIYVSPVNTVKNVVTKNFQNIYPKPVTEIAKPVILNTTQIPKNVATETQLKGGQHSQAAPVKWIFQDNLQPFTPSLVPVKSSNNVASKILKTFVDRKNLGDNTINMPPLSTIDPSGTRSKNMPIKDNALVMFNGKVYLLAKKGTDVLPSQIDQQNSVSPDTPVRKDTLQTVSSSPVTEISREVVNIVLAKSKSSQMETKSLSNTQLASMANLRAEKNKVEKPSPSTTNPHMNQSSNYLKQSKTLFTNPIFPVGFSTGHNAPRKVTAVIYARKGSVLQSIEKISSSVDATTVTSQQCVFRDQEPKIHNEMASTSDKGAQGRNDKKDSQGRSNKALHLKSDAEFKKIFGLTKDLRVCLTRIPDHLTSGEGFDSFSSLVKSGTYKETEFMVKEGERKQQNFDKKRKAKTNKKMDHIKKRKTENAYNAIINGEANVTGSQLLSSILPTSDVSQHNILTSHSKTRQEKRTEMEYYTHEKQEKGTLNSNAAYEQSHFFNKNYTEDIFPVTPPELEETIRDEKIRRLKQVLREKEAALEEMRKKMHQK
UniProt Q9H257: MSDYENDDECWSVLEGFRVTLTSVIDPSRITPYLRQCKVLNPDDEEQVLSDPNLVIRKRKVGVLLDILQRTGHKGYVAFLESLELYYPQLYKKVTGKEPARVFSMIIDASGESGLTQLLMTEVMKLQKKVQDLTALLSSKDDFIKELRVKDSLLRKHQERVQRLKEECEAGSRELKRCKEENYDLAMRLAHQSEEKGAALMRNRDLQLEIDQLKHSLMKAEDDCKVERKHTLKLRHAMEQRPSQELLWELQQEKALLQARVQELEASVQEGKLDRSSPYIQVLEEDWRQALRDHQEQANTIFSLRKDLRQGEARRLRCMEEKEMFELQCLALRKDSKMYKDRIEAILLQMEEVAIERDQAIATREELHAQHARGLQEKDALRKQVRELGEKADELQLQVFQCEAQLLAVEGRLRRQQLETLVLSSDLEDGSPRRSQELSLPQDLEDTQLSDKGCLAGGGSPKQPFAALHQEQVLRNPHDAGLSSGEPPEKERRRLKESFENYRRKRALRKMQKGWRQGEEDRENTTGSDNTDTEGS
UniProt Q9Y2S6, whole entry: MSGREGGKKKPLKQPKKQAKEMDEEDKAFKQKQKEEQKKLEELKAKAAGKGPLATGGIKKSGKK
UniProt P83916, whole entry, looked up: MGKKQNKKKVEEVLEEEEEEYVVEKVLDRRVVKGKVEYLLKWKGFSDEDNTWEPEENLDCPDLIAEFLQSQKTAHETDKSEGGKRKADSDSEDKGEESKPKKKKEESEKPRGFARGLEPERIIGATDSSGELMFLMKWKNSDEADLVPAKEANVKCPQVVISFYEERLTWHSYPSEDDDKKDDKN
UniProt Q6PJG6: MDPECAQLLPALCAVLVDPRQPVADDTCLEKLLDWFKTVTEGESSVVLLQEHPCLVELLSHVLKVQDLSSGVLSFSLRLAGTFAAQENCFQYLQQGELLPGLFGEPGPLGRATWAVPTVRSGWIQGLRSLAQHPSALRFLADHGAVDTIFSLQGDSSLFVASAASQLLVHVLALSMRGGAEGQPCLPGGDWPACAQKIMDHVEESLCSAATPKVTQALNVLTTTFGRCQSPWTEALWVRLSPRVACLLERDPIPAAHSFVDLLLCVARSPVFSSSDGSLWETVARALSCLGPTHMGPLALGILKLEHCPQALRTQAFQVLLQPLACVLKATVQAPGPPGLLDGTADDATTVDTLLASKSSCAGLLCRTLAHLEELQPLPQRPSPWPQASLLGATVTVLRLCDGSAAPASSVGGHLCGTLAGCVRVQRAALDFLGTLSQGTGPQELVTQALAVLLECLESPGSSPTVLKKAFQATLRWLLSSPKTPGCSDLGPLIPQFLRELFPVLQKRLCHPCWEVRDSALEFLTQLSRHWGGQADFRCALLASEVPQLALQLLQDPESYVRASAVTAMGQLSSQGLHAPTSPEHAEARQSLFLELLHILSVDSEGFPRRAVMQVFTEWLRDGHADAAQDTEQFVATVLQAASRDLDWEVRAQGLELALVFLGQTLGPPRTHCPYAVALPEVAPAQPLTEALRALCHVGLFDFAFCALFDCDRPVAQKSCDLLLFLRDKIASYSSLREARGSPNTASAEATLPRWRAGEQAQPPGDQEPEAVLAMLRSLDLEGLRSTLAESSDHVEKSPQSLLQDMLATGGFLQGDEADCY
UniProt Q96F63: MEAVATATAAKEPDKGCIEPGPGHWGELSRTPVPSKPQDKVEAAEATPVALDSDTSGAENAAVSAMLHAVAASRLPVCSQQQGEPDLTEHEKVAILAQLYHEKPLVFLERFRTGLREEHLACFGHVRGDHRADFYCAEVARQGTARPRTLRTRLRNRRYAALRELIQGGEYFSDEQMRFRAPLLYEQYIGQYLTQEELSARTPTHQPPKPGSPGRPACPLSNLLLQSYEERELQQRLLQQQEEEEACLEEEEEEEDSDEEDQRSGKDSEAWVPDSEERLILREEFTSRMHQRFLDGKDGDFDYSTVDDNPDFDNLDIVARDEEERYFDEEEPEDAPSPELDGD
UniProt Q9Y592: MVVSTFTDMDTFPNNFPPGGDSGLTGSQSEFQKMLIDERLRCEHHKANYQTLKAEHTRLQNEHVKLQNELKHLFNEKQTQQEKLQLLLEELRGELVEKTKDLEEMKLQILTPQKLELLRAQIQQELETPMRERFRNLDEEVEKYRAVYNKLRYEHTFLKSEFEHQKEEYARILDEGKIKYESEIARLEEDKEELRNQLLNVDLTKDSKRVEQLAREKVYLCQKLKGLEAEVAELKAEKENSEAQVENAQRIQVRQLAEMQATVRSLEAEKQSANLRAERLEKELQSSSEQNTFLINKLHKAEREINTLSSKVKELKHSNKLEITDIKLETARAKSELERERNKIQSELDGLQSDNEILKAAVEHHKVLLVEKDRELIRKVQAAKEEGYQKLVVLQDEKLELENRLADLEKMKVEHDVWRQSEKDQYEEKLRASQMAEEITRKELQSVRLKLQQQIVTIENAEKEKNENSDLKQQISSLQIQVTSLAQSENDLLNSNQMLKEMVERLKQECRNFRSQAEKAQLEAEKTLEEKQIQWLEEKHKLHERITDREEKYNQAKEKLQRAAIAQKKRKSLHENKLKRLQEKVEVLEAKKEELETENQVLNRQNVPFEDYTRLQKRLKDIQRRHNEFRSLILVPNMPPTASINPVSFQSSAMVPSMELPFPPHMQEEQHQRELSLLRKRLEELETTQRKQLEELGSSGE
UniProt Q6PII3: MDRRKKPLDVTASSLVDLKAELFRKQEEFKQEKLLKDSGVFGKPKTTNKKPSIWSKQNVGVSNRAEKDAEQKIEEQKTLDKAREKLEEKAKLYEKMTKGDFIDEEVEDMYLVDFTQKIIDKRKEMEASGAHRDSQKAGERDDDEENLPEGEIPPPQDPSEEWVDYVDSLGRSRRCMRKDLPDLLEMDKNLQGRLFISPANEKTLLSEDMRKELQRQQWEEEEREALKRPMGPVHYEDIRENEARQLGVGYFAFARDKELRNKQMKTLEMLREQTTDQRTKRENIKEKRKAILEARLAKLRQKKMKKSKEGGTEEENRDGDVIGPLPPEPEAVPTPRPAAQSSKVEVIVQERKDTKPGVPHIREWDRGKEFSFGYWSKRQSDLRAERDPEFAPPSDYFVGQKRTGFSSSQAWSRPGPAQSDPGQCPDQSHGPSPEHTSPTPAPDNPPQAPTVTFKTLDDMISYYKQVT
UniProt Q9Y312: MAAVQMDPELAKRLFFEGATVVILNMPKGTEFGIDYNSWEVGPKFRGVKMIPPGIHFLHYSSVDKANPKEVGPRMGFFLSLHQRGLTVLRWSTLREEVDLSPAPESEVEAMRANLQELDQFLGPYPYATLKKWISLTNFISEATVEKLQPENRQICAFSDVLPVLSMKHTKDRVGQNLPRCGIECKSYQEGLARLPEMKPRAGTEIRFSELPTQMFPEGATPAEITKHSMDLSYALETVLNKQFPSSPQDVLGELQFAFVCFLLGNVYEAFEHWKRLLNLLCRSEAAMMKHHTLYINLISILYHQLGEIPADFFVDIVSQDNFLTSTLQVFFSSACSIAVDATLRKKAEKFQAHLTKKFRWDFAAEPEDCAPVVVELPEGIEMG
UniProt P55210: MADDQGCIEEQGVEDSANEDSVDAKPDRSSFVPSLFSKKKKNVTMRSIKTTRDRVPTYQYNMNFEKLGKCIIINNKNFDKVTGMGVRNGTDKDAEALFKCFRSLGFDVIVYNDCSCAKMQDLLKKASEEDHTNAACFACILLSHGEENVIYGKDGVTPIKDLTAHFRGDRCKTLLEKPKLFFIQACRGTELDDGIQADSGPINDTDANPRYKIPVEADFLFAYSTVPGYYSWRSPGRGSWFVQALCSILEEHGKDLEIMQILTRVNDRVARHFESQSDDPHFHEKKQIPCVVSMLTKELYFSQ
UniProt Q9HBL7: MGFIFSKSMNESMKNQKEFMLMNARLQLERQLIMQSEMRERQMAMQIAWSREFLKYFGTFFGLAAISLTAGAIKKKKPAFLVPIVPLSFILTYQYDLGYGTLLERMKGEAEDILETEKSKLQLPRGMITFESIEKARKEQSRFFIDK
UniProt Q9BRT8: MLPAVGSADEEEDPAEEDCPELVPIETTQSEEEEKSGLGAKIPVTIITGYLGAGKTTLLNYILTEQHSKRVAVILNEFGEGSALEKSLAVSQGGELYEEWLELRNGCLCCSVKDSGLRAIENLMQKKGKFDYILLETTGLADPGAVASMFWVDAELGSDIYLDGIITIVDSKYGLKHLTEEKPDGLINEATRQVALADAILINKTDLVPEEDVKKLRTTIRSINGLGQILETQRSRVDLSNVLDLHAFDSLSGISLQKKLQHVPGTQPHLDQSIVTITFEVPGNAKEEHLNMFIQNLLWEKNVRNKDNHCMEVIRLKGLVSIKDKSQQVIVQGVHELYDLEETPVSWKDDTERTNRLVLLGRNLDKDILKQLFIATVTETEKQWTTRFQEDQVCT
UniProt P78371: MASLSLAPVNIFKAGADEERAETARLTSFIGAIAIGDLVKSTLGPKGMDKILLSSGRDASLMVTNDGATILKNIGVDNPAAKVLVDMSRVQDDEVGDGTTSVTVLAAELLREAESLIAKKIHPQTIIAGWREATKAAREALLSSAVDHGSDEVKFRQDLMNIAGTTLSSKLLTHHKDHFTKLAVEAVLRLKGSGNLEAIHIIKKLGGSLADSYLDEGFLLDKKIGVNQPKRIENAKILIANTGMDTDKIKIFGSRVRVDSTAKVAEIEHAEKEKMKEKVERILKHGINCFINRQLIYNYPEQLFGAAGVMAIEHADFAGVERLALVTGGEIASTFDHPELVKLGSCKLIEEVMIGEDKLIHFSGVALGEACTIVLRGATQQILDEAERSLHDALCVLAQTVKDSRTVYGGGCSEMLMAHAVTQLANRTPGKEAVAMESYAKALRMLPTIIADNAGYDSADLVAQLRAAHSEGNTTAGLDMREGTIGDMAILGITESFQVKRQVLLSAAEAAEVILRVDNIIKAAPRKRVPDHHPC

These targets were tested with COc1ccc(Cn2ccc3cc(C)c(C(=O)NO)cc32)cc1 (assay: dose-dependent thermal stabilisation call (2D-TPP, DLPTP, 10% FDR) (binary (1 = stabilised)); higher = stabilised by the compound). Conditions: system: HL-60 intact cells; concentration range 0.04-10 µM.
Experimental: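 2D thermal proteome profiling in intact HL-60 cells treated with BRD-3811 (0, 0.04, 0.29, 2, 10 uM) for 90 min at 37 C, then heated 3 min at one of 12 temperatures (42-63.9 C). Soluble protein was quantified by TMT10 MS. The value is the DLPTP call of the paper: dose-dependent thermal stabilisation over all temperatures at 10% FDR (F-test of a dose-response against a flat model); one experiment, one call per tested protein.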

Target | dose-dependent thermal stabilisation call
C4ORF16 (UniProt Q63HQ0) | inactive: 0
CBL (UniProt P22681) | inactive: 0
C1ORF69 (UniProt Q5T440) | inactive: 0
CCDC9 (UniProt Q9Y3X0) | inactive: 0
C3ORF10 (UniProt Q8WUW1) | inactive: 0
C1ORF103 (UniProt Q5T3J3) | inactive: 0
CARD9 (UniProt Q9H257) | inactive: 0
C9ORF5 (UniProt Q9H330) | inactive: 0
CCDC72 (UniProt Q9Y2S6) | inactive: 0
CBX1 (UniProt P83916) | inactive: 0
C7ORF27 (UniProt Q6PJG6) | inactive: 0
CCDC97 (UniProt Q96F63) | inactive: 0
CCDC41 (UniProt Q9Y592) | inactive: 0
C6ORF35 (UniProt Q9NWH2) | inactive: 0
C3ORF19 (UniProt Q6PII3) | inactive: 0
CAND1 (UniProt Q86VP6) | inactive: 0
C6ORF130 (UniProt Q9Y530) | inactive: 0
C20ORF4 (UniProt Q9Y312) | inactive: 0
CARM1 (UniProt Q86X55) | inactive: 0
CCDC21 (UniProt Q6P2H3) | inactive: 0
CASP7 (UniProt P55210) | inactive: 0
C9ORF46 (UniProt Q9HBL7) | inactive: 0
CCDC88C (UniProt Q9P219) | inactive: 0
CCDC47 (UniProt Q96A33) | inactive: 0
CBWD1 (UniProt Q9BRT8) | inactive: 0
CCT2 (UniProt P78371) | inactive: 0

Laid out differently: entries from further up
Target,dose-dependent thermal stabilisation call
CBL (UniProt P22681),inactive: 0
CCDC21 (UniProt Q6P2H3),inactive: 0
